Changes are numbered by the printed parent chain. Results are given in words; binding and its absence hold for the method and conditions named. Some entries that bind do so weakly or less than the wild type.
B1: mAb 663 (antibody, V domains shown)
VH: QVELVESGGGLVQPGGSLRLSCAASGFTFSSYAMSWVRQAPGKGLEWVSAIQASGTRTYYADSVKGRFTISRDNSKNTLYLQMNSLRAEDTAVYYCARGKGSSGYVRYFDVWGQGTLVTVSS
VL: DIVLTQSPATLSLSPGERATLSCRASQSVSSSYLAWYQQKPGQAPRLLIYGASSRATGVPARFSGSGSGTDFTLTISSLEPEDFATYYCLQIYNMPITFGQGTKVEIK
modifications: no Fab glycosylation (CE-SDS 0 %)
B2: mAb 638 (antibody, V domains shown)
VH: B1 VH
VL: B1 VL with M95H
modifications: no Fab glycosylation (CE-SDS 0 %)
B3: mAb 675 (antibody, V domains shown)
VH: B1 VH with Q52N, S54T
VL: B1 VL
modifications: glycosylation site in heavy chain CDR2 (NAT); Fab glycosylation (CE-SDS) 100 %
B4: mAb 651 (antibody, V domains shown)
VH: B1 VH with Q52N, S54T
VL: B1 VL with M95H
modifications: glycosylation site in heavy chain CDR2 (NAT); Fab glycosylation (CE-SDS) 100 %
B5: gantenerumab (antibody, human IgG1, V domains shown)
VH: QVELVESGGGLVQPGGSLRLSCAASGFTFSSYAMSWVRQAPGKGLEWVSAINASGTRTYYADSVKGRFTISRDNSKNTLYLQMNSLRAEDTAVYYCARGKGNTHKPYGYVRYFDVWGQGTLVTVSS
VL: B1 VL
modifications: glycosylation site in heavy chain CDR2 (NAS); Fab glycosylation (CE-SDS) 30-80 %

Chains of the proteins cited; added tags and fusions are not shown. Residues count along the entry.
UniProt P05067, residues 672-713: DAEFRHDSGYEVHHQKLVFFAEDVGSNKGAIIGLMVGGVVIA

These binders were tested against human A-beta protein, fibrillar A-beta(1-40) coated for the ELISA (human) (assay: in vitro binding (ELISA)).

binding, binds:
B1, B2, B3

What follows are binders tested against human A-beta protein, fibrillar A-beta(1-40) coated for the ELISA (human) (assay: A-beta binding (ELISA), qualitative grade).

binding, binds:
B1, B4, B2, B5, B3

These binders were tested against A-beta plaques in brain sections (in vitro plaque decoration) (human) (UniProt P05067) (assay: in vitro plaque decoration of brain sections).

binding, binds:
B1, B2, B5, B3

These binders were tested against A-beta plaques in brain sections (in vitro plaque decoration) (human) (UniProt P05067) (assay: in vitro plaque decoration/background, qualitative grade).

binding, binds:
B1, B2, B5, B3

These binders were tested against A-beta plaques in brain sections (in vitro plaque decoration) (human) (UniProt P05067) (assay: specific plaque staining of brain sections, antibody concentration 0.1).

binding, binds:
B1, B2, B5, B3

Each binder was assayed against A-beta plaques in brain sections (in vitro plaque decoration) (human) (UniProt P05067) (assay: specific plaque staining of brain sections, antibody concentration 1.0).

binding, binds:
B1, B2, B5, B3

From US20250051429A1
